Experimental data from the supplement of paper PMC10849652.
The other results are listed elsewhere or left out.

Chains of the proteins cited; added tags and fusions are not shown. Lines headed by an entry give the natural chain unless they say otherwise; changes in a name come on top.
UniProt Q1MSJ5: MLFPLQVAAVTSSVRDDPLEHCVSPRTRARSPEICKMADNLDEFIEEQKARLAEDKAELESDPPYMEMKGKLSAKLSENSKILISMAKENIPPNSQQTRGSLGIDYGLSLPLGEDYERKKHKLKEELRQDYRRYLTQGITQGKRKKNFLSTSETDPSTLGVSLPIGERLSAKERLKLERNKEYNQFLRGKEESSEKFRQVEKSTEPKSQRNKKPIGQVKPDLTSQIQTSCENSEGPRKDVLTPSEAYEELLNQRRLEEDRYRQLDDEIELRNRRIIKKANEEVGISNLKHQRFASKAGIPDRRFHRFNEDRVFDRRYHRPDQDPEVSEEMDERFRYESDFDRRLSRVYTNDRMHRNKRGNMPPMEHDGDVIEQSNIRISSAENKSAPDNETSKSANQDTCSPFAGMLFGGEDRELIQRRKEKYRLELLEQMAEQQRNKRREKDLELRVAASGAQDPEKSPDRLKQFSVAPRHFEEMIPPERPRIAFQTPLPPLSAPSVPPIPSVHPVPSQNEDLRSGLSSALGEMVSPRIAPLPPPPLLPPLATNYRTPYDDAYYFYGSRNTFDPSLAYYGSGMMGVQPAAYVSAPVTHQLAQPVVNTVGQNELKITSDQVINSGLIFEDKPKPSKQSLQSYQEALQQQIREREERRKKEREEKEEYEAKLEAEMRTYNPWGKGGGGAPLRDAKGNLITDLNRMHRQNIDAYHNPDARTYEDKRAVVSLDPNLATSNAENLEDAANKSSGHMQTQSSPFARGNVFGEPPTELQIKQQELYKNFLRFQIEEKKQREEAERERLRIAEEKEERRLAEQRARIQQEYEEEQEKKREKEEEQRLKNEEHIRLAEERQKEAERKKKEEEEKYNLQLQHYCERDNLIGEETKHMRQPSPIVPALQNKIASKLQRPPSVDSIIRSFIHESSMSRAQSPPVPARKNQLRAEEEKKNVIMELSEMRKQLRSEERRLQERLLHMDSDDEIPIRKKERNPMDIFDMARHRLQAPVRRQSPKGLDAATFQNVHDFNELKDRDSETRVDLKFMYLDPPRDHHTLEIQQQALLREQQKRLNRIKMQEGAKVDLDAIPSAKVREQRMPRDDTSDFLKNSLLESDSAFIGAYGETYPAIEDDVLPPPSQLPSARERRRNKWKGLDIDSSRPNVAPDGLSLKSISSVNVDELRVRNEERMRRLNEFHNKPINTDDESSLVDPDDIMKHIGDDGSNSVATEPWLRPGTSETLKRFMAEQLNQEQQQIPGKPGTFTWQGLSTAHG
UniProt Q5TAQ9: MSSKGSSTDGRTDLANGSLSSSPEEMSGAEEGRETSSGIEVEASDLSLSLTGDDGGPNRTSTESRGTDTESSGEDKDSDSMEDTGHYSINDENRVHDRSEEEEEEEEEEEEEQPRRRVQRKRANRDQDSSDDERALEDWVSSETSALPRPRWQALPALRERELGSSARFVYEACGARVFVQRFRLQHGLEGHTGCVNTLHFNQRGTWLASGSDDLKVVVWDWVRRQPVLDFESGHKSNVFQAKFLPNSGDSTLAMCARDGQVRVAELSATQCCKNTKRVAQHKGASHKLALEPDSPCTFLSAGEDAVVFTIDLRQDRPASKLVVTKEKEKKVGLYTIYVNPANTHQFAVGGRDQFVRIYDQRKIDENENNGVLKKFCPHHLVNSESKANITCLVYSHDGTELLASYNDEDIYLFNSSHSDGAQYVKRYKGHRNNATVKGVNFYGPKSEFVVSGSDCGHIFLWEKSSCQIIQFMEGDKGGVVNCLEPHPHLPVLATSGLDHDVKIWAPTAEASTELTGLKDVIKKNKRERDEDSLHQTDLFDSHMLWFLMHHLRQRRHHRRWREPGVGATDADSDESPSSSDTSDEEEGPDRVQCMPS
UniProt Q6UW02: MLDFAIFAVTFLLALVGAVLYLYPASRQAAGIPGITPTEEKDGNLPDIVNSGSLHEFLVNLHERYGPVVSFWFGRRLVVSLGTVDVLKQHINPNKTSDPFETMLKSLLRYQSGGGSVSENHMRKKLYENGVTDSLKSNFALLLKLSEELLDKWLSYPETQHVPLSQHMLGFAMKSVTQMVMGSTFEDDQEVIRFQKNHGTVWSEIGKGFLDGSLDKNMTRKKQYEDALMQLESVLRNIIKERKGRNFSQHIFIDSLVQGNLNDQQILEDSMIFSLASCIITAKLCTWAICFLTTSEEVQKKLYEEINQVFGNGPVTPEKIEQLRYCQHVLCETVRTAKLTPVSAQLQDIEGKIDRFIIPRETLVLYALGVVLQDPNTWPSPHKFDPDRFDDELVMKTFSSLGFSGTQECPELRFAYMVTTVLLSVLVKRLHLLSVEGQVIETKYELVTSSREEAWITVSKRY
UniProt P14868: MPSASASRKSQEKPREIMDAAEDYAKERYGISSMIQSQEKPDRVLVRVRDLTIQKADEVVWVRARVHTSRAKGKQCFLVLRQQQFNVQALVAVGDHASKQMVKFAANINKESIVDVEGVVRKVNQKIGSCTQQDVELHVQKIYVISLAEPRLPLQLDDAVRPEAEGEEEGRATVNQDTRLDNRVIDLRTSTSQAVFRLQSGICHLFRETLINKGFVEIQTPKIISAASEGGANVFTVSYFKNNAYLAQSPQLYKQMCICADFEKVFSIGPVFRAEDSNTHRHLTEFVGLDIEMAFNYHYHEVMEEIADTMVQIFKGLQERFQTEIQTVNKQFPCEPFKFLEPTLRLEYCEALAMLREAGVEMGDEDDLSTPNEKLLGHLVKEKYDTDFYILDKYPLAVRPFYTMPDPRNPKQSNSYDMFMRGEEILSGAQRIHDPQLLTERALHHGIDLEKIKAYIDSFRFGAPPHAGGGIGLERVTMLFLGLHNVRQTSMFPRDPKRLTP
UniProt Q13618, whole entry, looked up: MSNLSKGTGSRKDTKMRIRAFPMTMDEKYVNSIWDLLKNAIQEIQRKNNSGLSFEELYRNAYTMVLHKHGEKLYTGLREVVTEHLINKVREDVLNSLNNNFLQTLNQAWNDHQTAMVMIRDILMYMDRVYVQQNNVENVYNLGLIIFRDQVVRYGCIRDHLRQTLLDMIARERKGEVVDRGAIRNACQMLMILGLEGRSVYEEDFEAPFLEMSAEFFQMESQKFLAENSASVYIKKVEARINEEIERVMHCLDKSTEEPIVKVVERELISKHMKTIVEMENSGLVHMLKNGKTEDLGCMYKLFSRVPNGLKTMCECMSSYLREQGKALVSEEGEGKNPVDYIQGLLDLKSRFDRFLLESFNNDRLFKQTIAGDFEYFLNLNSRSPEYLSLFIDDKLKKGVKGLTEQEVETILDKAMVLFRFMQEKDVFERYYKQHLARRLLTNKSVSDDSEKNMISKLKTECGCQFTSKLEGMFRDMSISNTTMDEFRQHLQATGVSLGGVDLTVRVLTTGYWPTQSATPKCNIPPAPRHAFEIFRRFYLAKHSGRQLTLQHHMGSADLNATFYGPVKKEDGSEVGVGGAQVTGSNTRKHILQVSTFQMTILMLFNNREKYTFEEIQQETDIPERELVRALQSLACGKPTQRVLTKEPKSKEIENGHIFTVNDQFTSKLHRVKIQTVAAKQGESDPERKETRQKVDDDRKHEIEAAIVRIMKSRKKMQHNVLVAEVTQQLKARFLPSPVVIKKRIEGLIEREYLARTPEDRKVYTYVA
UniProt P27707: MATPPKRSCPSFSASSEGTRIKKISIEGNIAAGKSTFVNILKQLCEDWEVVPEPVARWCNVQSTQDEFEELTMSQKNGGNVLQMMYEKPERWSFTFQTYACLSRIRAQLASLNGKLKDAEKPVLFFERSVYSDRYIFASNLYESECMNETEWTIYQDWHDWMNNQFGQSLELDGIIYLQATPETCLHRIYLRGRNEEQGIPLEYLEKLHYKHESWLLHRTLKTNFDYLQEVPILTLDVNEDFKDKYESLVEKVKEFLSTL
UniProt Q96F07, whole entry, looked up: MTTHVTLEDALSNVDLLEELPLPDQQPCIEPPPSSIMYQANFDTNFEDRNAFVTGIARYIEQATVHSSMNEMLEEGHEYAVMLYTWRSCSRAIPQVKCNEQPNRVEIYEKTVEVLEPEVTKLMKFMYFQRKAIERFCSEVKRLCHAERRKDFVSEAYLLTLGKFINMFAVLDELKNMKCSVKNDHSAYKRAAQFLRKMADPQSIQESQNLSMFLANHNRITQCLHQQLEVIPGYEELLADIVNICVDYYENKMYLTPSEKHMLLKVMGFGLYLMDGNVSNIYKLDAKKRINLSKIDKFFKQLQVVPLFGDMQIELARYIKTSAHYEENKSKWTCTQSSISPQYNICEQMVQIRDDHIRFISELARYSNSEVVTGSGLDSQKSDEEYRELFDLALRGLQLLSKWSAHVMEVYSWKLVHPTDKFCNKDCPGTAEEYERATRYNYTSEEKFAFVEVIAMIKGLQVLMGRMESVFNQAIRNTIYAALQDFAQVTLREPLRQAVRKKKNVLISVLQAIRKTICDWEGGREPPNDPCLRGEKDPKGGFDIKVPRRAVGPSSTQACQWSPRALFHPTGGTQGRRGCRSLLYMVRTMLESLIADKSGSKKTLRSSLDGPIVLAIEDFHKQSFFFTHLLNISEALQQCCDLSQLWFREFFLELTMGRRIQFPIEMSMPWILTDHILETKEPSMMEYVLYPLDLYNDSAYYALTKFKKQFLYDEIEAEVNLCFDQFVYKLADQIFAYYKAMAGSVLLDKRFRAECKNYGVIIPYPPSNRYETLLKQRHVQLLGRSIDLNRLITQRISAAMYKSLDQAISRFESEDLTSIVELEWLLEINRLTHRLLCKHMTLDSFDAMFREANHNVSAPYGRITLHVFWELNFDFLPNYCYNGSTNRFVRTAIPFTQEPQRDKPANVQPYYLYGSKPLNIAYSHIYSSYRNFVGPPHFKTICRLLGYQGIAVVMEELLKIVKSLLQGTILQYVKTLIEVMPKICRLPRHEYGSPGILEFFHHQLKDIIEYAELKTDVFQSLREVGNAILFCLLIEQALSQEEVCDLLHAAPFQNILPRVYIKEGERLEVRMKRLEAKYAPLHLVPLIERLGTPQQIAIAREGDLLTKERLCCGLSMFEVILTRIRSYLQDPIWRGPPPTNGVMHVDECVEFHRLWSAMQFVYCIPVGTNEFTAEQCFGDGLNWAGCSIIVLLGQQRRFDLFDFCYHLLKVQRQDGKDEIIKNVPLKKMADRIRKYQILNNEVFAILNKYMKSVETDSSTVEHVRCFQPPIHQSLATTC
UniProt P61962: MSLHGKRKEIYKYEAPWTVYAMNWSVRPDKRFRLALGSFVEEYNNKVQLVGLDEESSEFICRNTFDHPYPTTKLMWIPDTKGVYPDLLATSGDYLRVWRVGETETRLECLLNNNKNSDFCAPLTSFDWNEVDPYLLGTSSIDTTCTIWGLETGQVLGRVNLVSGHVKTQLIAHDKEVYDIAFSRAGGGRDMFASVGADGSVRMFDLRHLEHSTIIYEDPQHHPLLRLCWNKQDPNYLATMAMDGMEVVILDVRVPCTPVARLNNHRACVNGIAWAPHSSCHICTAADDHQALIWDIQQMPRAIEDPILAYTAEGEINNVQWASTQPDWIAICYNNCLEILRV
UniProt P04080: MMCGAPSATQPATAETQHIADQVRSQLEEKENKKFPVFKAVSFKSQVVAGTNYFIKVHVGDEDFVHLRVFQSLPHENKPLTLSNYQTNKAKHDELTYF
UniProt P00167, whole entry, looked up: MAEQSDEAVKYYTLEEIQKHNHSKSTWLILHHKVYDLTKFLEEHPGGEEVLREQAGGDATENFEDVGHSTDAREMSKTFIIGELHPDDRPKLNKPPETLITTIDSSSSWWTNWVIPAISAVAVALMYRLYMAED
UniProt P32321: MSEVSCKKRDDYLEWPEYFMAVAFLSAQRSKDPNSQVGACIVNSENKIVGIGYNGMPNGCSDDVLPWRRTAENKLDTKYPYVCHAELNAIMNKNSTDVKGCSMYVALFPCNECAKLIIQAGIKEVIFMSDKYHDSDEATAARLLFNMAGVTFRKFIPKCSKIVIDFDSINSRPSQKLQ
UniProt P00387: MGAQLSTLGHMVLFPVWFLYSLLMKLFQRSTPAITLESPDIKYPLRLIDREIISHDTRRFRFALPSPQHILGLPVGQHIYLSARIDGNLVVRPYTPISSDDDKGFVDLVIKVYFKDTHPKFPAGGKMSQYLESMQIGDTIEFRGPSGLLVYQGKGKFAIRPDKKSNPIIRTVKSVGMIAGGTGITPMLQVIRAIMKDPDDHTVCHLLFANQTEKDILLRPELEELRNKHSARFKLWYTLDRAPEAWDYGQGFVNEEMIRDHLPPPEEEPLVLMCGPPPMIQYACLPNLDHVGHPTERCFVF
UniProt Q96C86: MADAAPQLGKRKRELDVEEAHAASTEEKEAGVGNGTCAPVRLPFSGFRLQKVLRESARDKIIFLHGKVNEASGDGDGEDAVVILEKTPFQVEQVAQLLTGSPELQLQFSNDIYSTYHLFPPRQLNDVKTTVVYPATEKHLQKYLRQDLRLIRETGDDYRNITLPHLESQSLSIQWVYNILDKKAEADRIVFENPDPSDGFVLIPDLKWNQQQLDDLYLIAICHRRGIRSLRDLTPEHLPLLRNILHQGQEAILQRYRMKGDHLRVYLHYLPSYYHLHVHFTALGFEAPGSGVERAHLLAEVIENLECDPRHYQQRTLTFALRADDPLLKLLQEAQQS

Assays:
Experiment in all cases: log2 fold change, soluble protein after heating vs DMSO (PISA); higher = thermal stabilisation; K562 cells, 10 uM, 30 min; active = over 0.2 and 3.5 SD of the protein, either way, in both replicates (recomputed)
[1] = compound: NC(=O)Nc1cc(-c2cccc(F)c2)sc1C(=O)N[C@H]1CCCNC1
Procedure, shortened: (§1)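 K562 cells at 2×10^6 cells/mL were treated with 10 μM compound for 30 min. Aliquots were heated for 3 min across 48°C-58°C, pooled, and extracted in PBS with 0.5% NP-40 at 4°C; soluble protein was the supernatant after 21,000xg for 90 min. Soluble protein was quantified by TMTpro 16plex LC-MS/MS with channel sums equalised, and reported as log2 fold change in thermal stability against DMSO controls, with values from duplicates.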

[2] = compound: NC(=O)c1cnc(N[C@@H]2CCCC[C@@H]2N)nc1Nc1cccc(-n2nccn2)c1
Procedure, shortened: as §1

[3] = compound: NC1(c2ccc(-c3nc4ccn5c(=O)[nH]nc5c4cc3-c3ccccc3)cc2)CCC1
Procedure, shortened: as §1

[4] = compound: NCC(=O)Nc1ccc(-n2nc(C(F)(F)F)cc2-c2ccc3c(ccc4ccccc43)c2)cc1
Procedure, shortened: as §1

entinostat = compound: Nc1ccccc1NC(=O)c1ccc(CNC(=O)OCc2cccnc2)cc1 [entinostat]
Procedure, shortened: as §1

vorinostat = compound: O=C(CCCCCCC(=O)Nc1ccccc1)NO [vorinostat]
Procedure, shortened: as §1

citarinostat = compound: O=C(CCCCCCNC(=O)c1cnc(N(c2ccccc2)c2ccccc2Cl)nc1)NO [citarinostat]
Procedure, shortened: as §1

silmitasertib = compound: O=C(O)c1ccc2c(c1)nc(Nc1cccc(Cl)c1)c1ccncc12 [silmitasertib]
Procedure, shortened: as §1

[5] = compound: O=C1NC(=O)C(c2cnc3ccccn23)=C1c1cn2c3c(cc(F)cc13)CN(C(=O)N1CCCCC1)CC2
Procedure, shortened: as §1

[6] = compound: c1cc(OCCN2CCCCC2)cc(-c2n[nH]c3ccc(-c4nnc[nH]4)cc23)c1
Procedure, shortened: as §1

entospletinib = compound: c1cn2cc(-c3ccc4cn[nH]c4c3)nc(Nc3ccc(N4CCOCC4)cc3)c2n1 [entospletinib]
Procedure, shortened: as §1

Measured: log2 fold change

CTU2 (UniProt Q2VPK5)
inactive: [1] -0.035 | [2] -0.067 | [3] -0.098 | [4] 0.136 | entinostat 0.006 | vorinostat 0.024 | citarinostat 0.011 | silmitasertib 0.016 | [5] -0.037 | [6] 0.008 | entospletinib 0.036

CYB5R4 (UniProt Q7L1T6)
inactive: [1] -0.035 | [2] -0.042 | [3] -0.084 | [4] -0.062 | entinostat 0 | vorinostat -0.005 | citarinostat 0.007 | silmitasertib 0 | [5] -0.074 | [6] -0.136 | entospletinib 0.013

CSPP1 (UniProt Q1MSJ5)
inactive: [1] 0.014 | [2] -0.099 | [3] -0.058 | [4] -0.064 | entinostat -0.012 | vorinostat 0.015 | citarinostat 0.028 | silmitasertib 0.02 | [5] 0.023 | [6] -0.072 | entospletinib 0.104

DCAF8 (UniProt Q5TAQ9)
inactive: [1] -0.092 | [2] -0.078 | [3] -0.013 | [4] -0.048 | entinostat 0.034 | vorinostat -0.054 | citarinostat 0.018 | silmitasertib 0.023 | [5] -0.069 | [6] -0.029 | entospletinib 0.014

CYP20A1 (UniProt Q6UW02)
inactive: [1] -0.034 | [2] -0.052 | [3] -0.102 | [4] -0.039 | entinostat -0.022 | vorinostat 0.03 | citarinostat 0.063 | silmitasertib -0.001 | [5] -0.017 | [6] -0.052 | entospletinib -0.087

DARS (UniProt P14868)
inactive: [1] -0.008 | [2] -0.001 | [3] 0.028 | [4] 0.033 | entinostat -0.04 | vorinostat -0.007 | citarinostat -0.013 | silmitasertib 0.033 | [5] 0.069 | [6] -0.089 | entospletinib 0.027

CUL3 (UniProt Q13618)
inactive: [1] -0.025 | [2] -0.036 | [3] -0.04 | [4] -0.015 | entinostat 0.008 | vorinostat 0.012 | citarinostat 0.024 | silmitasertib -0.007 | [5] -0.014 | [6] 0.015 | entospletinib -0.051

CWF19L1 (UniProt Q69YN2)
inactive: [1] 0.072 | [2] 0.027 | [3] -0.051 | [4] -0.067 | entinostat 0.009 | vorinostat -0.034 | citarinostat 0.012 | silmitasertib 0.016 | [5] -0.053 | [6] -0.019 | entospletinib 0.014

DCK (UniProt P27707)
inactive: [1] -0.017 | [2] 0.003 | [3] 0.002 | [4] 0.097 | entinostat 0 | vorinostat -0.082 | citarinostat 0.02 | silmitasertib -0.023 | [5] 0.019 | [6] 0.146 | entospletinib -0.027

CXorf56 (UniProt Q9H5V9)
inactive: [1] -0.078 | [2] 0.006 | [3] -0.028 | [4] -0.12 | entinostat -0.013 | vorinostat -0.006 | citarinostat 0.006 | silmitasertib 0.004 | [5] -0.013 | [6] -0.062 | entospletinib -0.026

CYB5R2 (UniProt Q6BCY4)
inactive: [1] -0.003 | [2] 0.032 | [3] 0.009 | [4] -0.021 | entinostat -0.02 | vorinostat -0.096 | citarinostat -0.001 | silmitasertib -0.005 | [5] -0.065 | [6] -0.017 | entospletinib -0.004

CYFIP2 (UniProt Q96F07)
inactive: [1] -0.056 | [2] -0.009 | [3] -0.154 | [4] -0.055 | entinostat 0 | vorinostat 0.055 | citarinostat -0.007 | silmitasertib 0.005 | [5] -0.001 | [6] -0.027 | entospletinib 0.026

CTBP1 (UniProt Q13363)
inactive: [1] -0.045 | [2] 0.005 | [3] -0.026 | [4] 0.041 | entinostat -0.023 | vorinostat 0.042 | citarinostat 0.037 | silmitasertib -0.031 | [5] -0.037 | [6] -0.05 | entospletinib -0.038

CUL4B (UniProt K4DI93)
inactive: [1] -0.019 | [2] -0.025 | [3] -0.062 | [4] -0.015 | entinostat -0.006 | vorinostat 0.008 | citarinostat 0.032 | silmitasertib -0.031 | [5] -0.033 | [6] -0.005 | entospletinib -0.012

DCAF7 (UniProt P61962)
inactive: [1] -0.029 | [2] -0.016 | [3] -0.091 | [4] -0.088 | entinostat 0.034 | vorinostat 0.016 | citarinostat 0.018 | silmitasertib -0.154 | [5] -0.078 | [6] -0.082 | entospletinib 0.029

DCAKD (UniProt Q8WVC6)
inactive: [1] -0.043 | [2] -0.059 | [3] -0.078 | [4] 0.026 | entinostat -0.051 | vorinostat 0.009 | citarinostat 0.003 | silmitasertib -0.009 | [5] -0.045 | [6] -0.081 | entospletinib 0.036

DAP3 (UniProt P51398)
inactive: [1] 0.021 | [2] -0.008 | [3] -0.045 | [4] 0.009 | entinostat 0.02 | vorinostat 0.083 | citarinostat 0.025 | silmitasertib -0.033 | [5] -0.049 | [6] 0.01 | entospletinib 0.058

CSTF1 (UniProt Q05048)
inactive: [1] 0.014 | [2] -0.011 | [3] -0.009 | [4] 0.013 | entinostat -0.023 | vorinostat -0.048 | citarinostat 0.021 | silmitasertib 0.072 | [5] 0.038 | [6] 0.017 | entospletinib -0.021

CYB5B, A0A499FJ32
inactive: [1] 0.004 | [2] 0.013 | [3] 0.095 | [4] 0.005 | entinostat 0.032 | vorinostat -0.02 | citarinostat -0.087 | silmitasertib 0.023 | [5] 0.005 | [6] -0.097 | entospletinib 0.055

CSTB (UniProt P04080)
inactive: [1] -0.012 | [2] -0.152 | [3] -0.122 | [4] -0.083 | entinostat 0.055 | vorinostat -0.035 | citarinostat 0.029 | silmitasertib 0.072 | [5] -0.125 | [6] -0.156 | entospletinib -0.02

CYB5A (UniProt P00167)
inactive: [1] 0.023 | [2] 0.141 | [3] -0.023 | [4] 0.03 | entinostat 0.041 | vorinostat -0.034 | citarinostat -0.007 | silmitasertib 0.015 | [5] -0.117 | [6] -0.017 | entospletinib 0.025

5 neighbouring entries out of the list so far, quoted:
DCAKD (UniProt Q8WVC6)
inactive: [1] -0.043 | [2] -0.059 | [3] -0.078 | [4] 0.026 | entinostat -0.051 | vorinostat 0.009 | citarinostat 0.003 | silmitasertib -0.009 | [5] -0.045 | [6] -0.081 | entospletinib 0.036

DAP3 (UniProt P51398)
inactive: [1] 0.021 | [2] -0.008 | [3] -0.045 | [4] 0.009 | entinostat 0.02 | vorinostat 0.083 | citarinostat 0.025 | silmitasertib -0.033 | [5] -0.049 | [6] 0.01 | entospletinib 0.058

CSTF1 (UniProt Q05048)
inactive: [1] 0.014 | [2] -0.011 | [3] -0.009 | [4] 0.013 | entinostat -0.023 | vorinostat -0.048 | citarinostat 0.021 | silmitasertib 0.072 | [5] 0.038 | [6] 0.017 | entospletinib -0.021

CYB5B, A0A499FJ32
inactive: [1] 0.004 | [2] 0.013 | [3] 0.095 | [4] 0.005 | entinostat 0.032 | vorinostat -0.02 | citarinostat -0.087 | silmitasertib 0.023 | [5] 0.005 | [6] -0.097 | entospletinib 0.055

CSTB (UniProt P04080)
inactive: [1] -0.012 | [2] -0.152 | [3] -0.122 | [4] -0.083 | entinostat 0.055 | vorinostat -0.035 | citarinostat 0.029 | silmitasertib 0.072 | [5] -0.125 | [6] -0.156 | entospletinib -0.02

(listing goes on)

DCTD isoform 2 (UniProt P32321)
inactive: [1] 0.012 | [2] -0.02 | [3] -0.055 | [4] 0.046 | entinostat -0.005 | vorinostat 0.003 | citarinostat -0.001 | silmitasertib -0.031 | [5] -0.017 | [6] -0.063 | entospletinib 0.044

CTNNA2 (UniProt P26232)
inactive: [1] -0.013 | [2] -0.013 | [3] -0.112 | [4] -0.008 | entinostat -0.019 | vorinostat 0.047 | citarinostat 0.064 | silmitasertib -0.032 | [5] -0.021 | [6] -0.018 | entospletinib -0.05

CYB5R3 isoform 3 (UniProt P00387)
inactive: [1] -0.045 | [2] -0.046 | [3] -0.02 | [4] -0.053 | entinostat 0 | vorinostat -0.009 | citarinostat -0.013 | silmitasertib -0.015 | [5] -0.027 | [6] -0.048 | entospletinib -0.006

DCPS (UniProt Q96C86)
inactive: [1] -0.037 | [2] 0.001 | [3] -0.027 | [4] 0.068 | entinostat -0.038 | vorinostat -0.035 | citarinostat -0.011 | silmitasertib -0.025 | [5] -0.04 | [6] -0.014 | entospletinib -0.048
